Results taken from PubChem BioAssay AID651814 (National Center for Advancing Translational Sciences (NCATS), 2012).
The campaign covered roughly 2,100 compounds. About 590 (28%) were called active. Inconclusive results, whose numbers are uncertain, are shown with a selection of clear calls. Calls come from the whole dose curve; as a rule, active = well fitted inhibition curve with a large enough effect; inconclusive = small, poorly fitted or top-dose-only effect; inactive = flat fitted curve, though single readings scatter. Potencies of inconclusive entries are doubtful fits and often do not repeat.

The chains behind the UniProt entries cited, without tags or fusion partners. Where a name states a change or a piece, a line headed by the entry shows the natural chain unless it says otherwise.
UniProt Q8IUX4: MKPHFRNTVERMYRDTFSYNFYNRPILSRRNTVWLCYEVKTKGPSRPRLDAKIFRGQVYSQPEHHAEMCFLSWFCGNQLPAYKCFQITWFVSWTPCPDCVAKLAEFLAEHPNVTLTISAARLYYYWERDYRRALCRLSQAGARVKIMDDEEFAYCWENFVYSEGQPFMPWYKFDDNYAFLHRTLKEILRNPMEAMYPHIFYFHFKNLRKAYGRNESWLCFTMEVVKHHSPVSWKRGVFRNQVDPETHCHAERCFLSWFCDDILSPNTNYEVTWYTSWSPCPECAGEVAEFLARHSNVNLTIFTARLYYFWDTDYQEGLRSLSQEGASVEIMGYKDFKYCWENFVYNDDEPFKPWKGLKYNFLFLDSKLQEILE

target: DNA dC->dU-editing enzyme APOBEC-3F (Homo sapiens) (UniProt Q8IUX4); assay: qHTS for inhibitors of Vif-A3F interactions: Cherry picks; details: HeLa A3F-eYFP + Vif (tagged APOBEC3F with the HIV-1 protein that degrades it), eYFP fluorescence, 24 h; note: nearly all actives have a fitted effect of over 70% in size;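 for max response: % of control where 0% means no effect; active compounds raise eYFP fluorescence by blocking Vif-driven A3F loss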
Excerpt: The recent discovery and characterization of host restriction factors, which provide a potent defense to invading retroviruses, has provided new targets for antiviral drug development. APOBEC3G (A3G) and APOBEC3F (A3F) are potent cytidine deaminases that block HIV-1 replication; HIV-1 expresses the Vif protein, which counteracts A3G and A3F by binding to them and inducing their proteasomal degradation. The Vif-A3G and Vif-A3F interactions provide two potential targets for development of small molecules which can interfere with the ability of Vif to degrade A3G or A3F. […] To identify inhibitors that can interfere with Vif mediated degradation of A3G and A3F, we have developed Hela cell lines that stably express A3G or A3F tagged with eYFP at the C-terminal end (A3G-eYFP or A3F-eYFP, respectively) and Vif. In the absence of an inhibitor, Vif induces degradation of A3G-eYFP and A3F-eYFP, and the cells are not fluorescent. In the presence of an inhibitor, it is expected that Vif will be unable to degrade A3G-eYFP and/or A3F-eYFP, resulting in an increase in yellow fluorescence. In this assay, Vif A3F was screened against the cherry picks ordered from the MLSMR. NIH Chemical Genomics Center [NCGC] NIH Molecular Libraries Probe Centers Network [MLPCN] MLPCN Grant: MH093245 Assay Submitter (PI): Vinay Pathak, National Cancer Institute
A3F-Vif cells were harvested from T225 flask and resuspended in phenol free OPTI-MEM medium with 5% FBS. Then 5 uL of 140,000 cells/mL resuspended cells was dispensed into each well of low base Aurora COC 1,536-well plates (black walled, clear bottom) using a Multidrop Combi dispenser. After overnight culture at 37 deg C with 5% CO2, a total of 23 nL of compounds at 5 selected concentrations from the NPC or positive control (2 mM stock of MG132) in DMSO was transferred to each well of the assay plate using a pintool (Kalypsys, San Diego, CA), and the plates were further incubated at 37 deg C with 5% CO2 for 24 hours. After that, the plates were measured on Acumen Explorer (TTP Lab Tech). The fluorescence was detected by 488 nm/Ex and […].
Potency is the fitted concentration of half-maximal effect.

SMILES	Potency	max response
COc1ccc2nc3ccccc3nc2c1NC(=O)c1ccc(Cl)cc1	active: 16.4 µM	–
N#C/C(=C\c1ccc(-c2ccc(F)cc2F)o1)c1nc2ccccc2[nH]1	active: 20.6 µM	–
CN(C)c1ccc(/C=C/c2ccnc3cc(Cl)ccc23)cc1	active: 2.91 µM	–
Cc1ccc(C(=O)NN(C)c2nc3ccccc3nc2C(F)(F)F)cc1	inconclusive: 2.8 µM [inhibitor, full curve]	–
CC(/C=N/NC(=O)c1cc(-c2ccc3ccccc3c2)n[nH]1)=C\c1ccco1	inconclusive: 25 µM [inhibitor, single point]	–
O=C/C(=C\Nc1ccccn1)c1nc2ccccc2o1	inconclusive: 23.1 µM [inhibitor, single point]	–
CCc1ccc2nc(N(CCCN(C)C)C(=O)c3ccc(S(=O)(=O)N(C)C4CCCCC4)cc3)sc2c1	–	inactive: -4.66%
Cn1cccc1/C=C1\SC(=Nc2ccccc2)NC1=O	inconclusive: 2.5 µM [inhibitor, full curve]	–
CCN(CC)c1ccc(/C=C/c2cccc[n+]2C)c(OC)c1	active: 3.14 µM	–
O=c1[nH]c(/C=C/c2cccc3ccccc23)nc2ccccc12	inconclusive: 20.6 µM [inhibitor, single point]	–
CCOC(=O)c1csc(NC(=O)c2cc(-c3ccccn3)nc3ccccc23)n1	–	inactive: -1.96%
CCCCN(CCCC)c1ccc(/C=C/c2ccnc3ccccc23)cc1	active: 20.6 µM	–
COc1ccc(NC(=O)c2c(Cl)n(C)c3ccccc23)cc1	inconclusive: 14 µM [inhibitor, partial curve]	–
Cc1ccc(C)c(Cn2c(=O)n(CCCC(=O)NCc3ccco3)c(=O)c3sccc32)c1	inconclusive: 5.59 µM [inhibitor, partial curve]	–
N#CC1=C2SCC(O)(c3ccccc3)N2C(=O)CC1c1ccccc1 (stereo unspecified)	inconclusive: 2.23 µM [inhibitor, full curve]	–
CCN(CC)CCCNc1ccc2ncn3c4ccc(O)cc4c(=O)c1c23	active: 8.2 µM	–
N#Cc1sc2nc(-c3cccs3)cc(-c3ccc(Cl)cc3)c2c1N	inconclusive: 15.8 µM [inhibitor, single point]	–
CCN1CCc2nc3sc(C(=O)c4ccccc4)c(N)c3cc2C1	active: 16.4 µM	–
O=C1C(Cl)=C(NCCc2ccccc2)C(=O)c2ccccc21	inconclusive: 20.6 µM [inhibitor, single point]	–
Cc1ccc2c(c1)C=CC(C#N)N2C(=O)c1ccccc1 (stereo unspecified)	inconclusive: 1.98 µM [inhibitor, full curve]	–
Oc1[nH]c2ccccc2c1N=Nc1c(F)c(F)c(F)c(F)c1F	inconclusive: 29.1 µM [inhibitor, single point]	–
Cc1ccc(NC(=O)c2ccc(NCCCN3CCC(C)CC3)c([N+](=O)[O-])c2)cc1F	–	inactive: -24%
COc1ccc(NC(=O)c2sc3nc(-c4ccc(OC)cc4)cc(C(F)(F)F)c3c2N)cc1	active: 1.3 µM	–
CCN1/C(=C/c2cccc[n+]2C)Sc2ccc(OC)cc21	active: 18.4 µM	–

Single records (already shown). Values in the order: Potency	max response
`O=C/C(=C\Nc1ccccn1)c1nc2ccccc2o1` is entered as inconclusive: 23.1 µM [inhibitor, single point]	–
`CCOC(=O)c1csc(NC(=O)c2cc(-c3ccccn3)nc3ccccc23)n1` is entered as –	inactive: -1.96%
`CCc1ccc2nc(N(CCCN(C)C)C(=O)c3ccc(S(=O)(=O)N(C)C4CCCCC4)cc3)sc2c1` is entered as –	inactive: -4.66%
`N#C/C(=C\c1ccc(-c2ccc(F)cc2F)o1)c1nc2ccccc2[nH]1` is entered as active: 20.6 µM	–

Next results

SMILES	Potency	max response
Cc1ccc(S(=O)(=O)N2CCN(C(=O)CSC(=S)N3CCCC3)CC2)c(C)c1	–	inactive: 1.16%
COc1ccc(/C=C2\C(=O)NC(=S)N2C(=O)c2ccc(F)cc2)cc1	active: 13 µM	–
COc1ccc(C2=NOC(C(=O)NCc3ccc(F)cc3)C2)cc1 (stereo unspecified)	–	inactive: -16.1%
COc1ccc(N(C(=O)C(C)C)S(=O)(=O)c2cccs2)cc1	inconclusive: 14 µM [inhibitor, single point]	–
O=C(Nc1ccc(N2CCN(C(=O)c3ccccc3)CC2)cc1)c1ccc([N+](=O)[O-])o1	inconclusive: 22.3 µM [inhibitor, single point]	–
CN1C2CCC1/C(=C\c1ccccc1)C(=O)/C2=C\c1ccccc1	inconclusive: 15.8 µM [inhibitor, single point]	–
CN(C)c1ccc(/C=C/C(=O)c2c(O)c3ccccc3oc2=O)cc1	active: 1.46 µM	–
CC(C)NC(=S)N/N=C/c1sc(N2CCCCC2)nc1-c1cccs1	active: 16.4 µM	–
O=S(=O)([N-]c1nc2ccccc2nc1-[n+]1ccc(-c2ccncc2)cc1)c1ccccc1	–	inactive: -0.136%
COc1ccc(NC(=O)CSc2nc3c(oc4ccccc43)c(=O)n2Cc2ccco2)cc1Cl	active: 14.6 µM	–
Cc1ccc(C2C(C(=O)c3cccs3)=C(O)C(=O)N2c2nnc(C)s2)cc1 (stereo unspecified)	active: 19.8 µM	–
C[n+]1ccc(/C=C/c2cc[n+](C)c3ccccc23)c2ccccc21	active: 11.6 µM	–
CC(C)COc1ccc(C(=O)N/C(=C/c2cccc([N+](=O)[O-])c2)C(=O)O)cc1	–	inactive: -0.401%
Cc1ccc2ccc3c(c2n1)NS(=O)(=O)c1ccc(C(F)(F)F)cc1-3	inconclusive: 16.4 µM [inhibitor, partial curve]	–
COc1cc2ccccc2cc1C(=O)N/N=C/c1cccnc1	inconclusive: 11.2 µM [inhibitor, partial curve, poor fit]	–
COc1ccc(-c2ccc3c(c2)S(=O)(=O)c2cccc(C(=O)NCc4cccc(OC(F)(F)F)c4)c2C3=O)cc1OC	inconclusive: 4.11 µM [inhibitor, partial curve]	–
COc1cc(/C=C(\C#N)c2nc3ccccc3[nH]2)ccc1Oc1ccc([N+](=O)[O-])cn1	inconclusive: 14 µM [inhibitor, single point]	–
C[n+]1cc(C(=O)N2CCCCC2)ccc1/C=C/c1c[nH]c2ccccc12	active: 14 µM	–
Cc1cc[n+](C2CCCCC2)cc1	inconclusive: 29.1 µM [inhibitor, single point]	–
Oc1ccc(C2=NNC(=NCc3ccc4c(c3)OCO4)SC2)c(O)c1	–	inactive: -25%
C=CCN1C(=O)c2cccc3c(N4CCCCC4)ccc(c23)C1=O	active: 16.4 µM	–
O=C(Cn1ncc(Cl)c(Cl)c1=O)N1CCN(S(=O)(=O)c2ccc3ccccc3c2)CC1	–	inactive: -29%
O=C(Nc1ccccc1OC(=O)c1ccccc1)c1ccccc1	active: 17.7 µM	–
CC[n+]1ccccc1/C=C/c1ccc(N(C)C)cc1	active: 20.6 µM	–

SMILES	Potency	max response
CC(=O)Nc1ccc2nc(NC(=O)c3ccc([N+](=O)[O-])o3)sc2c1	inconclusive: 15.8 µM [inhibitor, single point]	–
O=C(Cn1ncc(Cl)c(Cl)c1=O)Nc1ccc2c(c1)OCO2	inconclusive: 14 µM [inhibitor, single point]	–
O=[N+]([O-])c1ccc(N/N=C/C=C/c2ccco2)cc1	inconclusive: 14.6 µM [inhibitor, partial curve]	–
CCOc1cc(C#N)c(NC(=O)c2cccnc2)cc1OCC	inconclusive: 1.77 µM [inhibitor, full curve]	–
CCc1ccc(/C=N/NC(=O)c2cc(-c3ccncc3)nc3ccccc23)s1	inconclusive: 1.98 µM [inhibitor, full curve]	–
COc1ccc(-n2nnnc2-c2cccc(OC)c2)cc1	inconclusive: 0.994 µM [inhibitor, full curve]	–
CC(=Nc1ccccc1)C1=C(O)C(Cc2ccccc2)NC1=O (stereo unspecified)	inconclusive: 0.314 µM [inhibitor, full curve]	–
O=C(NC1CCCC(C(F)(F)F)C1)c1ccc([N+](=O)[O-])o1 (stereo unspecified)	inconclusive: 15.8 µM [inhibitor, single point]	–
COc1cc(C=C2C(=O)c3ccccc3C2=O)cc(OC)c1OC	–	inactive: -7.21%
FC(F)(F)c1ccccc1NC(=S)NN=C1CCCCCC1	–	inactive: 0.807%
CCN1C(=O)/C(=C2/Sc3ccc(OC)cc3N2C)SC1=Nc1cccc(O)c1	inconclusive: 15.8 µM [inhibitor, single point]	–
CC(=O)Oc1c(-c2ccc(Br)o2)oc2ccccc2c1=O	inconclusive: 16.4 µM [inhibitor, single point]	–
CN(/N=C/c1ccc(N(C)C)cc1)C1=NS(=O)(=O)c2ccccc21	inconclusive: 15.8 µM [inhibitor, single point]	–
C=C(C)CNC(=S)N/N=C1\CCCCc2ccccc21	–	inactive: 0.867%
C=CCOc1c(Cl)cc(C(=S)N2CCCC2)cc1OCC	inconclusive: 15.8 µM [inhibitor, single point]	–
Cc1cc(/C=C2\SC(=Nc3ccccc3)NC2=O)c(C)n1-c1ccc(S(N)(=O)=O)cc1	inconclusive: 1.77 µM [inhibitor, partial curve, poor fit]	–
CC(=O)c1cccc(-c2ccnc3c2CC(C(=O)Nc2cccc(NS(C)(=O)=O)c2)O3)c1 (stereo unspecified)	–	inactive: -25.6%
CCn1c(SCC(=O)c2c[nH]c3ccccc23)nnc1-c1cccs1	inconclusive: 18.4 µM [inhibitor, single point]	–
CCOC(=O)c1c(-c2ccc(OC)cc2)csc1/N=C/C1C(=O)CCCC1=O	–	inactive: -2.18%
COc1ccc(COn2c(=O)c(C)[n+]([O-])c3ccccc32)cc1OC	inconclusive: 17.7 µM [inhibitor, single point]	–
O=c1c(O)c(-c2cccs2)oc2ccccc12	inconclusive: 0.326 µM [inhibitor, partial curve]	–
CCOc1ccc(C(=O)Nc2cc(-c3nc4ccccc4[nH]3)ccc2Cl)cc1[N+](=O)[O-]	inconclusive: 19.8 µM [inhibitor, single point]	–
Cc1cccc(Nc2nc(N)nc(-c3oc4ccccc4c3C)n2)c1	inconclusive: 12.5 µM [inhibitor, single point]	–
